Assay results published in the supplement of paper PMC10849652.
The list shows a part of the results.

Sequences of proteins named here, by UniProt entry; tags and fusion partners are left off. A change or cut given only in a name is not applied to a line headed by its entry.
UniProt Q9BZX2: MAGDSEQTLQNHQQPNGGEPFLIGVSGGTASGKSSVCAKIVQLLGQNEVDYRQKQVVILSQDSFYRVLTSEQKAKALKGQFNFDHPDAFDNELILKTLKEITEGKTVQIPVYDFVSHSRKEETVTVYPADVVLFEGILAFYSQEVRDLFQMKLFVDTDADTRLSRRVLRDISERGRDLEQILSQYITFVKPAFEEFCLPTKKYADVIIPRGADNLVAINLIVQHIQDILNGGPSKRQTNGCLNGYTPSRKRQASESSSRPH
UniProt Q9NNW7, whole entry, looked up: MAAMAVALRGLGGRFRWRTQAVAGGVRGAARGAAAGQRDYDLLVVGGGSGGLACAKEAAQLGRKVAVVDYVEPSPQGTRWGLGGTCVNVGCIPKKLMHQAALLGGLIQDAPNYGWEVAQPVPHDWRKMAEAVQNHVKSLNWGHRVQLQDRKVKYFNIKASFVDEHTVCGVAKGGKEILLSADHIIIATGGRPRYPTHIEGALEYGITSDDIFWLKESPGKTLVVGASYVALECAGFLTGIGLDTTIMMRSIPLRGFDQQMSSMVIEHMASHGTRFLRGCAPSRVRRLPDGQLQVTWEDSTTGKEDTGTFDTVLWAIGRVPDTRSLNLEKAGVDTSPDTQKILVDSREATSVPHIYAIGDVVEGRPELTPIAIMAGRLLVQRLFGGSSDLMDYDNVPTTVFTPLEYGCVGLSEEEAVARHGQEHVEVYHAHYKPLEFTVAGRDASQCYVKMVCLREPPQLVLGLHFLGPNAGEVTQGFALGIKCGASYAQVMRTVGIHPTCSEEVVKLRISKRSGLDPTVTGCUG
UniProt Q06418: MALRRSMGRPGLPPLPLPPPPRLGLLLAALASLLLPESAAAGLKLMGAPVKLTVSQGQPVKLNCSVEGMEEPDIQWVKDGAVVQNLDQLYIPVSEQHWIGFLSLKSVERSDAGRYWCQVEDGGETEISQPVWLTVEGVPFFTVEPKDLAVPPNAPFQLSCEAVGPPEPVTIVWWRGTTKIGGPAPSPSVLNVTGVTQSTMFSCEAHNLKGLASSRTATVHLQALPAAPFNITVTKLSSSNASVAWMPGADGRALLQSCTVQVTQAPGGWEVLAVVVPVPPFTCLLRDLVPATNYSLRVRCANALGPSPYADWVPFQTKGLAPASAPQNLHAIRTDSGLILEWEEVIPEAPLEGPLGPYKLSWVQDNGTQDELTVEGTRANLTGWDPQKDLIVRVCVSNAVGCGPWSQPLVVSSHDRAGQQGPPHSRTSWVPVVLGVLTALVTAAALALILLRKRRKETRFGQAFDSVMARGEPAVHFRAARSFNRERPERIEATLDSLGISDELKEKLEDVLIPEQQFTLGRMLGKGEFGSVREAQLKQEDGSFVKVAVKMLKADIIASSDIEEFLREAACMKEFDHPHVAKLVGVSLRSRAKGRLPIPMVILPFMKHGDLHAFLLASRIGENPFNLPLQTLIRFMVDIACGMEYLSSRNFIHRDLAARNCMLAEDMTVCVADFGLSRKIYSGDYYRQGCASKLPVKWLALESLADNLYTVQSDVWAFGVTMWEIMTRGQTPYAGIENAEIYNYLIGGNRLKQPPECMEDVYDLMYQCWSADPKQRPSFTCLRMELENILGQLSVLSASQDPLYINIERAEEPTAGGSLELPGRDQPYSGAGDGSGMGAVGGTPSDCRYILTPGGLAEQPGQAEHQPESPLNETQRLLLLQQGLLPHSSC
UniProt O14530: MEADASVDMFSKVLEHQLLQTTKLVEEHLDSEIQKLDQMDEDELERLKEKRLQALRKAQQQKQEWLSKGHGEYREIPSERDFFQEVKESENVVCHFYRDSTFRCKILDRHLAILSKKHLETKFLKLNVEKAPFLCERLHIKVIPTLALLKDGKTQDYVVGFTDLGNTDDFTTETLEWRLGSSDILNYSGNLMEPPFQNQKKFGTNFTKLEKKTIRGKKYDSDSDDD
UniProt O15042: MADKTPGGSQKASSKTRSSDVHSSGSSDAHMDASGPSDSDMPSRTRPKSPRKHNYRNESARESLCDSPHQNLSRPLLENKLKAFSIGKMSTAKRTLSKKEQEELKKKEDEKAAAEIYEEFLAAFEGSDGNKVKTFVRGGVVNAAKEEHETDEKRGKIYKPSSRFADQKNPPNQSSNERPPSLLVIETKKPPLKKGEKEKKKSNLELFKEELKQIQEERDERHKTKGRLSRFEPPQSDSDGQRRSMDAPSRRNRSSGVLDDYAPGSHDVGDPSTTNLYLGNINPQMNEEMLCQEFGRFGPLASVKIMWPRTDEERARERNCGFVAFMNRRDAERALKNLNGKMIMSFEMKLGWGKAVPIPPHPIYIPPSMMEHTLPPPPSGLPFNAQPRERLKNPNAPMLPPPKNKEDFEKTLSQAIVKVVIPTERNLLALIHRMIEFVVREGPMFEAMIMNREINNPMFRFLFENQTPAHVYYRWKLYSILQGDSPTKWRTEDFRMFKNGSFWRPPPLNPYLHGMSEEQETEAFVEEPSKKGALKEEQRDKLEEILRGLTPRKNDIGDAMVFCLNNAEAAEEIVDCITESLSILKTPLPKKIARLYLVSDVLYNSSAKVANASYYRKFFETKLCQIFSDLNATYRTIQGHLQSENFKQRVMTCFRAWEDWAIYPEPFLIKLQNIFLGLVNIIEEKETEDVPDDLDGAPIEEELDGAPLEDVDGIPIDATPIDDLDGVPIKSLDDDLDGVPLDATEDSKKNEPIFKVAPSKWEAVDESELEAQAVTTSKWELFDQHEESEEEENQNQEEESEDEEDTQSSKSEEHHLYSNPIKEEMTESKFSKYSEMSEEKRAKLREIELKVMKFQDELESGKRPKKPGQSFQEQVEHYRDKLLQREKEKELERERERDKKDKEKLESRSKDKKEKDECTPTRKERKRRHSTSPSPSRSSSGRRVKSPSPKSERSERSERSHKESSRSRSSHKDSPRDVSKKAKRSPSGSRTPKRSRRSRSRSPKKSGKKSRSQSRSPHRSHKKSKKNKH
UniProt Q9H3M7: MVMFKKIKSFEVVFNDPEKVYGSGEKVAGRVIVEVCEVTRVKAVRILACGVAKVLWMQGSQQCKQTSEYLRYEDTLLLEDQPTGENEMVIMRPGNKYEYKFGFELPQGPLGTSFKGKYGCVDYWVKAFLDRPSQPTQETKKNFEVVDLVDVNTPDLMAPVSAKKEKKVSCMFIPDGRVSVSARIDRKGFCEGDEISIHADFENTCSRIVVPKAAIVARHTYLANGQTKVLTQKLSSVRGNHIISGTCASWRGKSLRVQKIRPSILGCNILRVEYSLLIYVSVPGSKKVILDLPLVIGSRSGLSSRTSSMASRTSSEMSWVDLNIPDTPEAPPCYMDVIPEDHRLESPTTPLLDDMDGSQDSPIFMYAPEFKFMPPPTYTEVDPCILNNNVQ
UniProt Q96RR1: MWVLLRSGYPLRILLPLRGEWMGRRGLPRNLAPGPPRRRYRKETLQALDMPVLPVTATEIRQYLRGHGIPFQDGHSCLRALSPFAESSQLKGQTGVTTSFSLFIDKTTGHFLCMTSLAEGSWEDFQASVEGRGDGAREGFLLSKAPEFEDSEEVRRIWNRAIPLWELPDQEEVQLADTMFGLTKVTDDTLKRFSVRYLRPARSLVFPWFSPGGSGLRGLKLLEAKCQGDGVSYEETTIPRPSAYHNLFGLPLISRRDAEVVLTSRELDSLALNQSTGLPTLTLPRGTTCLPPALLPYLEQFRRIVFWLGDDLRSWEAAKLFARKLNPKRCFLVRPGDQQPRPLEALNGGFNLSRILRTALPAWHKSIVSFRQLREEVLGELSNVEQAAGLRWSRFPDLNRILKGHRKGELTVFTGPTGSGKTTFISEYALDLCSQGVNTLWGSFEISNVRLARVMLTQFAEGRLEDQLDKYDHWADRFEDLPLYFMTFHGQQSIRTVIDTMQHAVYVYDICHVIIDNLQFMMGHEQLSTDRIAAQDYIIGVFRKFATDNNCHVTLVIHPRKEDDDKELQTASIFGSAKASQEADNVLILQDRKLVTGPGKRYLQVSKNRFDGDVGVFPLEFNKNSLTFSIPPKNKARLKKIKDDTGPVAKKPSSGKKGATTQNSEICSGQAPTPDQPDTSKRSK
UniProt O94941: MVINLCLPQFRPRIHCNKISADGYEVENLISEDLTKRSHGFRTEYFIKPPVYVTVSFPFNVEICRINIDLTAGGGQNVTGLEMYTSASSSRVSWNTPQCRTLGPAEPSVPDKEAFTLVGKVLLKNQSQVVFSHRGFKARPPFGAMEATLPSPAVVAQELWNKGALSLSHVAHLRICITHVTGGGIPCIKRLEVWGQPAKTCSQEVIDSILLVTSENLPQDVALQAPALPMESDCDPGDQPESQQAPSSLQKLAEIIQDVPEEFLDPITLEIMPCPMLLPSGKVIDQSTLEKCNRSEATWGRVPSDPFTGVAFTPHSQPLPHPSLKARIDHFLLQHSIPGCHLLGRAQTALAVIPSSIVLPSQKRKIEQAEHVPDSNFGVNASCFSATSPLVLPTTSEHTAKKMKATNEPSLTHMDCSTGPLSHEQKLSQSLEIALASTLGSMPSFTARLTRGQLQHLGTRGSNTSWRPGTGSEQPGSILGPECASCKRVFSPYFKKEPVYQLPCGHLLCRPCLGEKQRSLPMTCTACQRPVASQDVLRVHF
UniProt P09936: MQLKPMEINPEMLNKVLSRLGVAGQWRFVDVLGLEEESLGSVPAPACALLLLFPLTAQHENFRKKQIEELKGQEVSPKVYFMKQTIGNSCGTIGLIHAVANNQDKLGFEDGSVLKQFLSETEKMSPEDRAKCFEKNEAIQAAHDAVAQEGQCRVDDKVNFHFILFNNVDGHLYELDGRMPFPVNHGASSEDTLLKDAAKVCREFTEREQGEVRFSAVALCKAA
UniProt Q9NY65, whole entry, looked up: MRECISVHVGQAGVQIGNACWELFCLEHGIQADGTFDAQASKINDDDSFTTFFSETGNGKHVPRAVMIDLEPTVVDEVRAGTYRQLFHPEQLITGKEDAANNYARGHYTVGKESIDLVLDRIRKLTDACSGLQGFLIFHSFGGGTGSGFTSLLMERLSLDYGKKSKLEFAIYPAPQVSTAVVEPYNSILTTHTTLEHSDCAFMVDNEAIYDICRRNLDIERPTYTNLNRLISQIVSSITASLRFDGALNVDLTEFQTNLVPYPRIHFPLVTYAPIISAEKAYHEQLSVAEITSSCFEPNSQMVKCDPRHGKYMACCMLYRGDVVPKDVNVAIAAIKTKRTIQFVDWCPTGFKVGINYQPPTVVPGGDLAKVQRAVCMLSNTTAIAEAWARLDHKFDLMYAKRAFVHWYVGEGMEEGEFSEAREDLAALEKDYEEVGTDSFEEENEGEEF
UniProt P41226: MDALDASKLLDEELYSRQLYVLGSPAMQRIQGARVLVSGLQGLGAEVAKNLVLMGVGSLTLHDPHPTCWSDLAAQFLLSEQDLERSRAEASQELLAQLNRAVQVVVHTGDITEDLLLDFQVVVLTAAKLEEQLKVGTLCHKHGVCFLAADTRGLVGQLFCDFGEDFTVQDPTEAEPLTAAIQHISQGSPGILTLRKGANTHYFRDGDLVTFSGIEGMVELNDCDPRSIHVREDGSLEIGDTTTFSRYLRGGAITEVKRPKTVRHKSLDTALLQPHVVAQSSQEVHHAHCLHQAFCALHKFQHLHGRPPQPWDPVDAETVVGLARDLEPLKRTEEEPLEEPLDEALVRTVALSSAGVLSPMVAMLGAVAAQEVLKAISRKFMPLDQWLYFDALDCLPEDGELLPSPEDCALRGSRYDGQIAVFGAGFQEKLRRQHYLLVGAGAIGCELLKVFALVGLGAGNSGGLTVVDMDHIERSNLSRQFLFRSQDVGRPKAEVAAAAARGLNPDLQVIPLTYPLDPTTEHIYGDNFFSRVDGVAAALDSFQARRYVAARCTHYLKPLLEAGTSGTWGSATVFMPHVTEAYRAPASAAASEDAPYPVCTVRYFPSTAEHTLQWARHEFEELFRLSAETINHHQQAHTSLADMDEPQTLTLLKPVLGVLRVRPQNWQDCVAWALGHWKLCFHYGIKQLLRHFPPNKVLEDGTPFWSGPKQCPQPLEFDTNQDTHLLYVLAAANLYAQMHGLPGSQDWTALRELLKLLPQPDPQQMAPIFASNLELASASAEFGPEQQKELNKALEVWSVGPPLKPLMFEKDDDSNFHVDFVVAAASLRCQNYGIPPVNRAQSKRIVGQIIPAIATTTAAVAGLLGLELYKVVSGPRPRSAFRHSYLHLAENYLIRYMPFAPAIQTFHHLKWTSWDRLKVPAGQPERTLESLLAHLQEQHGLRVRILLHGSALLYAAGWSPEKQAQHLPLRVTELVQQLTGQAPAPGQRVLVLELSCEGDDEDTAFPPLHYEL
UniProt Q96B02: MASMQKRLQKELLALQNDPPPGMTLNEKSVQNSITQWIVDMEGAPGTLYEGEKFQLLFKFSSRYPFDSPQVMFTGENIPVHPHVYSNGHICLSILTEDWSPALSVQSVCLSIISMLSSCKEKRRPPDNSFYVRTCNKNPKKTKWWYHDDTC

Assays:
Experiment in all cases: log2 fold change, soluble protein after heating vs DMSO (PISA); higher = thermal stabilisation; K562 lysate, 10 uM; active = over 0.2 and 3.5 SD of the protein, either way, in both replicates (recomputed)
lapatinib = compound: CS(=O)(=O)CCNCc1ccc(-c2ccc3ncnc(Nc4ccc(OCc5cccc(F)c5)c(Cl)c4)c3c2)o1 [lapatinib]
Method in brief: (§1)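 To prepare the extract, K562 pellets were dounce-homogenised in PBS pH 7.4 with 1 mM MgCl2, giving crude material at 1 mg/mL protein. This was treated with 10 μM compound for 30 min, then heated in aliquots for 3 min over 48°C-58°C before pooling and addition of NP-40 to 0.5% at 4°C. Centrifugation at 21,000xg for 90 min left soluble protein in the supernatant, which TMTpro 16plex LC-MS/MS quantified with equalised channel sums. Results are log-two fold changes in thermal stability compared with solvent controls, from duplicates.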

pictilisib = compound: CS(=O)(=O)N1CCN(Cc2cc3nc(-c4cccc5[nH]ncc45)nc(N4CCOCC4)c3s2)CC1 [pictilisib]
Method in brief: as §1

crizotinib = compound: C[C@@H](Oc1cc(-c2cnn(C3CCNCC3)c2)cnc1N)c1c(Cl)ccc(F)c1Cl [crizotinib]
Method in brief: as §1

[1] = compound: C[C@H](C1=CC=C(C=C1)C(=O)NC2=C3C=CNC3=NC=C2)N
Method in brief: as §1

duvelisib = compound: C[C@H](Nc1ncnc2nc[nH]c12)c1cc2cccc(Cl)c2c(=O)n1-c1ccccc1 [duvelisib]
Method in brief: as §1

gandotinib = compound: Cc1cc(Nc2cc(CN3CCOCC3)c3nc(C)c(Cc4ccc(Cl)cc4F)n3n2)n[nH]1 [gandotinib]
Method in brief: as §1

tozasertib = compound: Cc1cc(Nc2cc(N3CCN(C)CC3)nc(Sc3ccc(NC(=O)C4CC4)cc3)n2)n[nH]1 [tozasertib]
Method in brief: as §1

doramapimod = compound: Cc1ccc(-n2nc(C(C)(C)C)cc2NC(=O)Nc2ccc(OCCN3CCOCC3)c3ccccc23)cc1 [doramapimod]
Method in brief: as §1

bafetinib = compound: Cc1ccc(NC(=O)c2ccc(CN3CC[C@H](N(C)C)C3)c(C(F)(F)F)c2)cc1Nc1nccc(-c2cncnc2)n1 [bafetinib]
Method in brief: as §1

[2] = compound: Cc1cccc(CC(=O)N2CCc3c2ccc(-c2cn(C)c4ncnc(N)c24)c3F)n1
Method in brief: as §1

nilotinib = compound: Cc1cn(-c2cc(NC(=O)c3ccc(C)c(Nc4nccc(-c5cccnc5)n4)c3)cc(C(F)(F)F)c2)cn1 [nilotinib]
Method in brief: as §1

[3] = compound: Cc1nc(Nc2n[nH]c3c2CN(C(=O)N[C@H](CN(C)C)c2ccccc2)C3(C)C)c2sccc2n1
Method in brief: as §1

dasatinib = compound: Cc1nc(Nc2ncc(C(=O)Nc3c(C)cccc3Cl)s2)cc(N2CCN(CCO)CC2)n1 [dasatinib]
Method in brief: as §1

[4] = compound: Cc1ncc(-c2ccnc(Nc3ccc(S(C)(=O)=O)cc3)n2)n1C(C)C
Method in brief: as §1

[5] = compound: Cn1cc(-c2ccc3c(c2)CCN3C(=O)Cc2cccc(C(F)(F)F)c2)c2c(N)ncnc21
Method in brief: as §1

quisinostat = compound: Cn1cc(CNCC2CCN(c3ncc(C(=O)NO)cn3)CC2)c2ccccc21 [quisinostat]
Method in brief: as §1

tipifarnib = compound: Cn1cncc1[C@@](N)(c1ccc(Cl)cc1)c1ccc2c(c1)c(-c1cccc(Cl)c1)cc(=O)n2C [tipifarnib]
Method in brief: as §1

[6] = compound: NC(=O)Nc1cc(-c2cccc(F)c2)sc1C(=O)N[C@H]1CCCNC1
Method in brief: as §1

[7] = compound: NC(=O)c1cnc(N[C@@H]2CCCC[C@@H]2N)nc1Nc1cccc(-n2nccn2)c1
Method in brief: as §1

[8] = compound: NC1(c2ccc(-c3nc4ccn5c(=O)[nH]nc5c4cc3-c3ccccc3)cc2)CCC1
Method in brief: as §1

Measured: log2 fold change

UCK2 (UniProt Q9BZX2)
inactive: lapatinib 0.063 | pictilisib 0 | crizotinib -0.016 | [1] -0.091 | duvelisib 0.001 | gandotinib -0.037 | tozasertib -0.02 | doramapimod 0.075 | bafetinib -0.069 | [2] 0.04 | nilotinib 0.001 | [3] -0.019 | dasatinib -0.028 | [4] 0.019 | [5] 0.031 | quisinostat -0.058 | tipifarnib -0.011 | [6] 0.071 | [7] 0.018 | [8] -0.051

UCHL5 (UniProt Q5LJA9)
inactive: lapatinib 0.027 | pictilisib 0.001 | crizotinib -0.036 | [1] -0.07 | duvelisib 0.082 | gandotinib -0.074 | tozasertib 0.003 | doramapimod 0.067 | bafetinib -0.07 | [2] -0.156 | dasatinib -0.214 | [5] -0.075 | quisinostat -0.186 | [6] -0.024 | [7] 0.009 | [8] 0.006

TXNRD2 isoform 3 (UniProt Q9NNW7)
inactive: [8] -0.228

TYRO3 (UniProt Q06418)
inactive: pictilisib -0.125 | [1] -0.044 | gandotinib -0.191 | tozasertib 0.146 | doramapimod -0.131 | bafetinib -0.047 | [2] 0.075 | quisinostat -0.161 | [6] 0.205

UBAP2, A0A0D9SFI5
inactive: crizotinib -0.037 | doramapimod -0.056 | quisinostat 0.151 | [6] 0.111

TXNDC9 isoform 2 (UniProt O14530)
inactive: duvelisib -0.089 | dasatinib -0.058 | [5] 0.048

U2SURP isoform 2 (UniProt O15042)
inactive: duvelisib 0.058 | tozasertib -0.333 | dasatinib 0.095 | [5] -0.118 | [8] 0.229

TXNIP (UniProt Q9H3M7)
inactive: pictilisib 0.029 | crizotinib -0.045 | [1] 0.143 | duvelisib 0 | gandotinib -0.089 | tozasertib -0.015 | doramapimod 0.019 | bafetinib -0.042 | [2] -0.037 | nilotinib 0.091 | [3] 0.038 | dasatinib -0.023 | [4] -0.026 | [5] 0.012 | quisinostat -0.077 | tipifarnib -0.022 | [6] 0.029 | [8] 0.005

TWNK (UniProt Q96RR1)
inactive: pictilisib -0.037 | crizotinib -0.204 | [1] 0.03 | duvelisib 0.083 | gandotinib -0.574 | tozasertib -0.042 | doramapimod 0.058 | bafetinib -0.243 | [2] -0.039 | nilotinib -0.075 | [3] 0.062 | dasatinib -0.11 | [4] 0.183 | [5] -0.011 | quisinostat -0.429 | tipifarnib 0.139 | [6] 0.076 | [8] -0.187

UBA2 (UniProt U3KQ93)
inactive: crizotinib -0.114 | tozasertib 0.134 | doramapimod 0.014 | quisinostat -0.195 | [6] 0.06 | [8] -0.014

UBOX5 (UniProt O94941)
inactive: [1] -0.124 | duvelisib -0.097 | gandotinib 0.035 | [2] -0.086 | nilotinib 0.075 | [3] 0.047 | dasatinib 0.076 | [4] -0.004 | [5] 0.106 | tipifarnib 0.013 | [8] 0.174

U2AF1L5 (UniProt P0DN76)
inactive: lapatinib 0.091 | duvelisib 0.021 | gandotinib 0.114 | tozasertib 0.207 | [2] 0.342 | nilotinib -0.033 | [3] 0.061 | dasatinib -0.012 | [4] 0.077 | [5] 0.026 | tipifarnib -0.01 | [7] 0.009 | [8] -0.022
active: [1] -0.904

UCHL1 (UniProt P09936)
inactive: tozasertib 0.601

TUBA8 (UniProt Q9NY65)
inactive: pictilisib -0.055 | [1] -0.358 | duvelisib 0.087 | gandotinib 0.138 | tozasertib 0.17 | bafetinib -0.327 | [2] 0.297 | nilotinib -0.047 | [3] -0.008 | dasatinib -0.124 | [4] -0.085 | [5] -0.007 | tipifarnib 0.003 | [8] -0.095

UBAP2 (UniProt Q5JV08)
inactive: nilotinib -0.211 | [3] 0.172 | [4] 0.104 | tipifarnib 0.133

UBA7 (UniProt P41226)
inactive: crizotinib -0.015 | [1] -0.015 | gandotinib -0.024 | doramapimod -0.021 | [2] 0.01 | quisinostat -0.075 | [6] 0.084 | [8] -0.103

UBE2M (UniProt M0QX69)
inactive: [1] -0.139 | gandotinib 0.071 | [2] 0.251

Two records picked at random from those above:
UBA7 (UniProt P41226)
inactive: crizotinib -0.015 | [1] -0.015 | gandotinib -0.024 | doramapimod -0.021 | [2] 0.01 | quisinostat -0.075 | [6] 0.084 | [8] -0.103

UBAP2 (UniProt Q5JV08)
inactive: nilotinib -0.211 | [3] 0.172 | [4] 0.104 | tipifarnib 0.133

(continued)

UBE2W isoform 3 (UniProt Q96B02)
inactive: pictilisib -0.04 | bafetinib 0.066 | [8] -0.218
